Only a part is listed here, and it is no random draw. Inconclusive results are not listed. Calls of active or inactive are those of the source. The call rests on the fitted dose curve; in most records, active means well fitted inhibition curve with a large enough effect; inconclusive means small, poorly fitted or top-dose-only effect; inactive means flat fitted curve, though single readings scatter.
Target: Luciferin 4-monooxygenase (Photinus pyralis) (UniProt P08659)
Test: qHTS profiling assay for firefly luciferase inhibitor/activator using purifed enzyme and Km concentrations of substrates (counterscreen for miR-21 project); further: nearly all actives have a fitted effect of over 55% in size
Settings: purified FLuc, luminescence inhibition
Text: MLPCN Grant: 1 R21 NS059478-01 (miR-21 grant) Assay Provider: NCGC NCGC Assay Overview: Firefly (Photinus pyralis) luciferase is one of the most commonly used transcriptional reporters for a number of reasons. It is considered one of the more dynamically responsive reporters -that is, responsive to changes in reporter transcription - as it requires no post-translational modifications and is enzymatically active directly after protein synthesis (Wood, 1998). Additionally, the half-life of the luciferase protein is short relative to other reporter-gene products (Wood, 1995). […] Although light produced in a bioluminescence reaction is of lower intensity than that produced during fluorescence emission, this is offset by little to no background light inherent to luminescent assays. […] Accumulated intracellular FLuc protein can be measured as an increase in luminescence signal, upon addition of detection reagents (which contain high concentrations of FLuc substrates) commonly used in high-throughput screening. In cell-based reporter gene assays that use FLuc as the reporter gene to quantitate the potential influence of a given compound against the target biology, this apparent increase in luminescence can mistakenly be interpreted as identification of a compound that is active against the target of interest. […]

By UniProt entry, the sequences of proteins in these tests, tags left out.
UniProt P08659, whole entry, looked up: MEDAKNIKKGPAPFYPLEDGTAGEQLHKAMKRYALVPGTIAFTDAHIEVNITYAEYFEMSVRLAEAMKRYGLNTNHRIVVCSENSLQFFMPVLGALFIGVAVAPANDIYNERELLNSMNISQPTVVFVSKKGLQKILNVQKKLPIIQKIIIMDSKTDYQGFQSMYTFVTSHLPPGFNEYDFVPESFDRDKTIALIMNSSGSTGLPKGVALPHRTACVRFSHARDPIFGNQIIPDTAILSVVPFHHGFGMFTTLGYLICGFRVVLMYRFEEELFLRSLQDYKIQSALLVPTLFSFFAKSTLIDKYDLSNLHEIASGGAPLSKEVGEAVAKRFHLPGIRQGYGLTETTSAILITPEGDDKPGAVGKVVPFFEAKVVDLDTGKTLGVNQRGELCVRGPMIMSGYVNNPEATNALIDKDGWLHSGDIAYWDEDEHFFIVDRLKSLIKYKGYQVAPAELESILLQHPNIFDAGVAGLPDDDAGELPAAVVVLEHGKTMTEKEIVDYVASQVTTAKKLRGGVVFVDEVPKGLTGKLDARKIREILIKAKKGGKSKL

| SMILES | Potency |
| --- | --- |
| Cc1ccc(-c2onc3ccc(C(=O)O)cc23)cc1 | active: 2390 nM |

— PubChem BioAssay AID588342 (National Center for Advancing Translational Sciences (NCATS), 2011)
